Experimental findings from publication PMC13043726, “SFPQ directs histone H3.3 deposition to R-loops in DNA repeats to protect genome stability” are described below.

By UniProt entry, the sequences of proteins in these tests, tags left out.
UniProt Q9UER7: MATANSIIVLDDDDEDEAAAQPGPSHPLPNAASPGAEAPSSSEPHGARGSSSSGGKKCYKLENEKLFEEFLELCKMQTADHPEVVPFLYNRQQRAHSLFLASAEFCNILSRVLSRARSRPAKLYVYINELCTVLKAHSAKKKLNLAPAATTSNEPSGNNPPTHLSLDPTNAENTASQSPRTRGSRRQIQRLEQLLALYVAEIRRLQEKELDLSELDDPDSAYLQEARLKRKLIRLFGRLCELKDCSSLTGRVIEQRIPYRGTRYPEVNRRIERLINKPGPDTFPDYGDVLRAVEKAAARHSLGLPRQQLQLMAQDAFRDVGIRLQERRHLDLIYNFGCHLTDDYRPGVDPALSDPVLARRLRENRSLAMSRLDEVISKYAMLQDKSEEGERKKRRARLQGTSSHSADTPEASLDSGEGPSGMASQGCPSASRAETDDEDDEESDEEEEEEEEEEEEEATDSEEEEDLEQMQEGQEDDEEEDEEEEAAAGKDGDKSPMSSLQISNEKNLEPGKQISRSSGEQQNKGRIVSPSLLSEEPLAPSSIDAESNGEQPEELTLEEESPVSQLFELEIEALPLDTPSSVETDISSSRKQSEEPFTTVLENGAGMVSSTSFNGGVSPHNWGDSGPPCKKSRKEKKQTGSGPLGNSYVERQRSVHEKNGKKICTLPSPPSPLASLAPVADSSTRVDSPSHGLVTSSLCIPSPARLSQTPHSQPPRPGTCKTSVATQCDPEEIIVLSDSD

Results are given in words; binding and its absence hold for the method and conditions named. For some assays here: Binding seen in cells or lysates may run through a third protein. Some entries that bind do so weakly or less than the wild type. For some assays here: Sequences can lack the tags named with a protein.

In test [1] the target is T1, myc-tagged human SFPQ, full length (human) (UniProt P23246).
T1 sequence: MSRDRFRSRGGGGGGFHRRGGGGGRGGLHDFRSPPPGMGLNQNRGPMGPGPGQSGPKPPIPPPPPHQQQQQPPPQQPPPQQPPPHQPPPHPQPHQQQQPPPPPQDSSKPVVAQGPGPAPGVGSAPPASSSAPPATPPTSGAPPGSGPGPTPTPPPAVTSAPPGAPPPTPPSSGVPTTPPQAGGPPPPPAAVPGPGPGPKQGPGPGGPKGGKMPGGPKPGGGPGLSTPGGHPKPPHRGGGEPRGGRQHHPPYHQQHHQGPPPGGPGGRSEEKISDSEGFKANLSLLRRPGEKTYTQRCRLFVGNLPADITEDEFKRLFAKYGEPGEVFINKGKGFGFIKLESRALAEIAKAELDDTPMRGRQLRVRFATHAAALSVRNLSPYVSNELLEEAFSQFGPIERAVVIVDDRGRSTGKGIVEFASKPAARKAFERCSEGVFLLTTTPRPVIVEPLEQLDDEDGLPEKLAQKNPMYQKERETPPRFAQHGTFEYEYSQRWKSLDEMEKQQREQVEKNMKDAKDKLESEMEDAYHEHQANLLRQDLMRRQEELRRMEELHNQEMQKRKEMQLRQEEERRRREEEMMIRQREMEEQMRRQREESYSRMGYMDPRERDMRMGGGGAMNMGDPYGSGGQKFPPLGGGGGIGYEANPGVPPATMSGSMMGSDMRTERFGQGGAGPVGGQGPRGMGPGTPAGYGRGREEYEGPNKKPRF
The test is described as follows: co-IP; myc-SFPQ and HA-DAXX overexpressed in H1299; reciprocal immunoprecipitation; IP buffer 50 mM Tris pH 8.0, 150 mM NaCl, 1% NP-40, 5 mM EDTA, 5% glycerol; western blot. (In western blotting, separated proteins are transferred to a membrane and probed.)

Test [2] addresses T2, endogenous SFPQ (human (endogenous in U-2 OS)) (UniProt P23246).
T2 sequence: T1 sequence
The test is described as follows: co-IP; endogenous proteins in U-2 OS, specific antibodies; IP buffer 50 mM Tris pH 8.0, 150 mM NaCl, 1% NP-40, 5 mM EDTA, 5% glycerol; western blot.

Test [3] deals with T2, endogenous SFPQ (human (endogenous in U-2 OS)). The test is described as follows: co-IP; anti-SFPQ ChIP of formaldehyde-cross-linked, sonicated chromatin; cross-links reversed; western blot for DAXX; cell line not stated for this panel.
In test [4] the target is T3, recombinant His6-myc-tagged full-length human SFPQ (human) (UniProt P23246).
T3 sequence: T1 sequence
The test is described as follows: pull-down; 10 ug His6-myc-SFPQ held on c-myc magnetic beads, 5 ug GST-DAXX-HA added; SEC buffer (20 mM Tris-HCl pH 8.0, 300 mM NaCl, 0.5 mM TCEP, 10% glycerol), 4 °C, 2 h; western blot; both purified.

Test [5] addresses HA-tagged DAXX, full length (UniProt Q9UER7). As to the kind of experiment: co-IP; myc-tagged SFPQ versions and full-length HA-DAXX transiently expressed in U-2 OS; IP buffer 50 mM Tris pH 8.0, 150 mM NaCl, 1% NP-40, 5 mM EDTA, 5% glycerol; western blot.

“HA-tagged DAXX, full length (from UniProt Q9UER7 1-740)”: the binding entry in test [1] is “binds”. Consider “endogenous Death Domain-Associated Protein (DAXX) (from UniProt Q9UER7 1-740)”, for which the binding result in test [2] and in test [3] was “binds” throughout. Turning to “recombinant GST-tagged DAXX-HA (from UniProt Q9UER7 1-740)”, in test [4], the binding result was “binds”.

B1: SFPQ proline-rich P-domain fused to GFP and a nuclear localization signal, myc-tagged (domain or fragment, UniProt P23246 105-204)
chain: DSSKPVVAQGPGPAPGVGSAPPASSSAPPATPPTSGAPPGSGPGPTPTPPPAVTSAPPGAPPPTPPSSGVPTTPPQAGGPPPPPAAVPGPGPGPKQGPGP
For the molecule B1, the binding entry in test [5] was “binds”.
